In the supplement of paper PMC12819154, “High-throughput peptide-centric local stability assay extends protein–ligand identification to membrane proteins, tissues and bacteria” (Nature Structural & Molecular Biology, 2025):
This is one part of the list. Most entries show no effect beyond the scatter of the controls.

Protein sequences, listed by entry. Tags and fused reporters are not part of them. Lines headed by an entry give the natural chain unless they say otherwise; changes in a name come on top.
UniProt O94762: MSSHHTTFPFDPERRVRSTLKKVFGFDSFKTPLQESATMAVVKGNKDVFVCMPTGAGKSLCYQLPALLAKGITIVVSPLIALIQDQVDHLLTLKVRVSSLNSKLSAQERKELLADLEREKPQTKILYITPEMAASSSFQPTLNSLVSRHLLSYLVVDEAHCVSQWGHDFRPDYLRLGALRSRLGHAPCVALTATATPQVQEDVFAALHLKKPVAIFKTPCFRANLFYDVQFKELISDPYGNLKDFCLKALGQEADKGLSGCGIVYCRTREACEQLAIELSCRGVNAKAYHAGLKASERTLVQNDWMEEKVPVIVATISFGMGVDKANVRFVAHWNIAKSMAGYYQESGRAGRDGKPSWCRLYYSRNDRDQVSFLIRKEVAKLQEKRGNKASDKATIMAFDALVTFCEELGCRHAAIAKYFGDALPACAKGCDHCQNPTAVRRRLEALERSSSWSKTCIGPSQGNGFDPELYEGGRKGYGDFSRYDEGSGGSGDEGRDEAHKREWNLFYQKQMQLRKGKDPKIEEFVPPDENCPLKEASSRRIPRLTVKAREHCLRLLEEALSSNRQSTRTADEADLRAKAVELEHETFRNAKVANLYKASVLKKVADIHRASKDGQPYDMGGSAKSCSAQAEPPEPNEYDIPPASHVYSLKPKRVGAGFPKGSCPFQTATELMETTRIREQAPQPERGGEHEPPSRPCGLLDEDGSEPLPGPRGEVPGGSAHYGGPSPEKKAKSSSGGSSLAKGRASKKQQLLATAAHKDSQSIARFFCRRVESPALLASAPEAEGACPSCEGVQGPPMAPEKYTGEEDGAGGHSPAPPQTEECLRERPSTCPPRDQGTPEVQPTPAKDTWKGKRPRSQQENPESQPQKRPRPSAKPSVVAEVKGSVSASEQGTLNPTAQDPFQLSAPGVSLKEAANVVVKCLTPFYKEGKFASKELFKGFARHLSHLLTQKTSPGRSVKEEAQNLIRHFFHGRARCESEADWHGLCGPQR
UniProt O75475: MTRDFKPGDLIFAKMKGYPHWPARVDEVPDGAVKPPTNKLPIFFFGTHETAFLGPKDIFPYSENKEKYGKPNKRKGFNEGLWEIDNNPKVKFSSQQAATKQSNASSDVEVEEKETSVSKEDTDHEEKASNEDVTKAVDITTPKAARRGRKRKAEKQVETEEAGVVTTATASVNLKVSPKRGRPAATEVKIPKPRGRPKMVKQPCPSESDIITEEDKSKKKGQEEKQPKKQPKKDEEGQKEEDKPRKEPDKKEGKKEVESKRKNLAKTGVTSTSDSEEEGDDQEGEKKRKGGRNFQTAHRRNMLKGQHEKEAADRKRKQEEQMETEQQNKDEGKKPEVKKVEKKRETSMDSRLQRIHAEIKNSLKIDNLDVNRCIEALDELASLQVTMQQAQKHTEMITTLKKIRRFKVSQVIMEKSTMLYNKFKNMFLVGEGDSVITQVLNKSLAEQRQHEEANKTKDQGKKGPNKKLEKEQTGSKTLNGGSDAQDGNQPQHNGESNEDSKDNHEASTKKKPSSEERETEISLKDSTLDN
UniProt O75531: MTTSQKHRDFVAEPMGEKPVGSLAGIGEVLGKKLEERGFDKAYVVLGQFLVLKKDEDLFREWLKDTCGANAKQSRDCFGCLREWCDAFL
UniProt O75419: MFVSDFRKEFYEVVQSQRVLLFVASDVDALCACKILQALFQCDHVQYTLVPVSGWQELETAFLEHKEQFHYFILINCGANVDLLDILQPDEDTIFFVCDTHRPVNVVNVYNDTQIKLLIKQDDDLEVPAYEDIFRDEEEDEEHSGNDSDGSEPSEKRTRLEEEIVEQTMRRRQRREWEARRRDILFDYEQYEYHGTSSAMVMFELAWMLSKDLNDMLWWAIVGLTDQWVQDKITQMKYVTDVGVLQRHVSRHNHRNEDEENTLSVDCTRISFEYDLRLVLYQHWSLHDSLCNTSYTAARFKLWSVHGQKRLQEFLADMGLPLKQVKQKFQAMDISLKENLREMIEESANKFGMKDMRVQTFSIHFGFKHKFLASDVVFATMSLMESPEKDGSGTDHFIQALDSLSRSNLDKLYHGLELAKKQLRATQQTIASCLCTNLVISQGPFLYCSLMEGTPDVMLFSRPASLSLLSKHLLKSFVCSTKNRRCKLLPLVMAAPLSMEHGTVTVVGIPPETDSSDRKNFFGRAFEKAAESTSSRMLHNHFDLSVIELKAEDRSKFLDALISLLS
UniProt O94983: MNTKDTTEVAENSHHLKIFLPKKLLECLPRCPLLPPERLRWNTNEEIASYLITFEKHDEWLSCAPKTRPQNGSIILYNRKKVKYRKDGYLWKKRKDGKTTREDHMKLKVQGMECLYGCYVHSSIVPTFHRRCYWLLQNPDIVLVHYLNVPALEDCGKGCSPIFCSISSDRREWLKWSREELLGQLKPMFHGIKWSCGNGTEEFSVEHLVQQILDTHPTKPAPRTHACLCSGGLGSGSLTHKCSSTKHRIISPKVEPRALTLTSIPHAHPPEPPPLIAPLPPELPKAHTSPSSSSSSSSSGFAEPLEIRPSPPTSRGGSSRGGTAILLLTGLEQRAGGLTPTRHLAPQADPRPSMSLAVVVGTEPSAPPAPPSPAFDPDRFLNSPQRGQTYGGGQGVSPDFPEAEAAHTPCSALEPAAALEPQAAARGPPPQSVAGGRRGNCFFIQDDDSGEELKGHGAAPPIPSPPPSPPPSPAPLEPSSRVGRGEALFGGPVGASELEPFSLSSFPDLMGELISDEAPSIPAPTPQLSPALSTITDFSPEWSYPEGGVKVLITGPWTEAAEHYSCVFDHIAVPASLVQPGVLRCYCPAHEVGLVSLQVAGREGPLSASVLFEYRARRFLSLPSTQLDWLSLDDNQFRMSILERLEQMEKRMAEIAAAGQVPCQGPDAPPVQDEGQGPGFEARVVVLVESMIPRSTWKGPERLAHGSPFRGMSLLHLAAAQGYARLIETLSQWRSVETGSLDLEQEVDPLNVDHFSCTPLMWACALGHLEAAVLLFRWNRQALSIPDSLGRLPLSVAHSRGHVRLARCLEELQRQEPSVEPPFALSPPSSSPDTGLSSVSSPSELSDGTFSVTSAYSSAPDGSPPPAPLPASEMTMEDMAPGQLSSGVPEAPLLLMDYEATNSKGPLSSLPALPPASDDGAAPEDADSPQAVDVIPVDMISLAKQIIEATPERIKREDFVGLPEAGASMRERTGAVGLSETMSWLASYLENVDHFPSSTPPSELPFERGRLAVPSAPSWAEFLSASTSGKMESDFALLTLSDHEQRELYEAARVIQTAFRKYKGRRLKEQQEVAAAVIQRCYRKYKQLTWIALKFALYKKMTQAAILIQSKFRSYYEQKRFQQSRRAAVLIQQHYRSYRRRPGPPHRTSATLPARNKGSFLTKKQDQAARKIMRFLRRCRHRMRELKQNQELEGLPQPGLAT
UniProt O75808: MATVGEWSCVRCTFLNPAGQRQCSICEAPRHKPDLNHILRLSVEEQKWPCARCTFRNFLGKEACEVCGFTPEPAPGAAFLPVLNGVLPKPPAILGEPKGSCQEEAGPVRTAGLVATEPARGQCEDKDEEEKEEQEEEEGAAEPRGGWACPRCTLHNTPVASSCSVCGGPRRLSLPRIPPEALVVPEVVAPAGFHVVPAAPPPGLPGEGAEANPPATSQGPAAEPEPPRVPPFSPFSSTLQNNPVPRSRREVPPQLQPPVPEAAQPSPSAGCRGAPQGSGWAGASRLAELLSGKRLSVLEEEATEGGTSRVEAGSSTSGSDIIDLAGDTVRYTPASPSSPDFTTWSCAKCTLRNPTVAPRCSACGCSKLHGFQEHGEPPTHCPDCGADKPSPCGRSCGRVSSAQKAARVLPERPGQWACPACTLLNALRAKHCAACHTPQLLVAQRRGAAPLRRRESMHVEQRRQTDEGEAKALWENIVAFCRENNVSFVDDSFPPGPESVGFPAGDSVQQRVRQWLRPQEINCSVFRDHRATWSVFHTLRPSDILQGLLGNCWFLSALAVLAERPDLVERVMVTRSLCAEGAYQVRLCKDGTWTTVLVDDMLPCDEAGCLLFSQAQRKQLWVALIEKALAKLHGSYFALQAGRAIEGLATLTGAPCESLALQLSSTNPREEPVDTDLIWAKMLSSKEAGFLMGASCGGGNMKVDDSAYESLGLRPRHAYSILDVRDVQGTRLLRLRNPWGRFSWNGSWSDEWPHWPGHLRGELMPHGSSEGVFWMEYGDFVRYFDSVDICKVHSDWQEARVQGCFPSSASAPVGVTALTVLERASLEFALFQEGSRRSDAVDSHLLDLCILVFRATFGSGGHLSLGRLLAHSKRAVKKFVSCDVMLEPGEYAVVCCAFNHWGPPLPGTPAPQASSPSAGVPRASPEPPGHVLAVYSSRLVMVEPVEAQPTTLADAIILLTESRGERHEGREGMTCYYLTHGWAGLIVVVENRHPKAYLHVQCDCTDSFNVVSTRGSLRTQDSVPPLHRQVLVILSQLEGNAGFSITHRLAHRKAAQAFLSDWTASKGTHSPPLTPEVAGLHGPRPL
UniProt O75526: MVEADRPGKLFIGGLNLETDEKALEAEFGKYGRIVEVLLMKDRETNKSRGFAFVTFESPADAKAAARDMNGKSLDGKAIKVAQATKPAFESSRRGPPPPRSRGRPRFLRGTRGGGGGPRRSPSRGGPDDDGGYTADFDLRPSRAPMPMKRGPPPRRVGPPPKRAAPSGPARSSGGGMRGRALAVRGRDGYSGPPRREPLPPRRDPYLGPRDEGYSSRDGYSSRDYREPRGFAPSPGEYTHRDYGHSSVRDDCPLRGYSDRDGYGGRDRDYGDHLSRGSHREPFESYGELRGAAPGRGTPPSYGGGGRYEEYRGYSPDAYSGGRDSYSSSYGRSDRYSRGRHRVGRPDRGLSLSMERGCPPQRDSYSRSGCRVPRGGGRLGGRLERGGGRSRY
UniProt O95243: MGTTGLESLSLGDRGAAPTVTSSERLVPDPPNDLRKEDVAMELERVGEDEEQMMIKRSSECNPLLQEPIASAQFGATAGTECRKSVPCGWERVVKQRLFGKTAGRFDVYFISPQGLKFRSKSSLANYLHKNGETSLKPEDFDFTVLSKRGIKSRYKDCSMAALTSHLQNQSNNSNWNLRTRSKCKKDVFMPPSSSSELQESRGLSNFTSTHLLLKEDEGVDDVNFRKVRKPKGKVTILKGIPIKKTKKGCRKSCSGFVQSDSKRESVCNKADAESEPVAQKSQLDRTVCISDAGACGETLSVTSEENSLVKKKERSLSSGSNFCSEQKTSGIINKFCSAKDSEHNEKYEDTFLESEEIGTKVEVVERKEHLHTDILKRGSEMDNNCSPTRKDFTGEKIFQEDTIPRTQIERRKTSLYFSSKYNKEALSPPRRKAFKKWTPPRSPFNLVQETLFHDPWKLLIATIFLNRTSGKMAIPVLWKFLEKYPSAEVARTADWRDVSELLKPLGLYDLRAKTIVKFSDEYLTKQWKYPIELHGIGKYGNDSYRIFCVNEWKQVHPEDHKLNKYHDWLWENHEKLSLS
UniProt O94788: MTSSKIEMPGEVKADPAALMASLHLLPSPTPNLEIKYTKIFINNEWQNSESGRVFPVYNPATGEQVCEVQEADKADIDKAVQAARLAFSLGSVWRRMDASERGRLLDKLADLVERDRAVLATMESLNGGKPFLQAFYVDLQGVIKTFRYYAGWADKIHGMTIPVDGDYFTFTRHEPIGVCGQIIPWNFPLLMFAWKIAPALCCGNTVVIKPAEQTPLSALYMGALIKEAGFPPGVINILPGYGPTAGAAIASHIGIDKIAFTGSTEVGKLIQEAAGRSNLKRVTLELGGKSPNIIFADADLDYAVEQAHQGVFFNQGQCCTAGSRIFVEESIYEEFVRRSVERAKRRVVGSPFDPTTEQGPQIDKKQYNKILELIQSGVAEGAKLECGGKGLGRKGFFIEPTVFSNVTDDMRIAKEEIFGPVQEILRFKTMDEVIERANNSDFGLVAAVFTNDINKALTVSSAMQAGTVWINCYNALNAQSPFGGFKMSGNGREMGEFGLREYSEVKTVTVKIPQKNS
UniProt O95721: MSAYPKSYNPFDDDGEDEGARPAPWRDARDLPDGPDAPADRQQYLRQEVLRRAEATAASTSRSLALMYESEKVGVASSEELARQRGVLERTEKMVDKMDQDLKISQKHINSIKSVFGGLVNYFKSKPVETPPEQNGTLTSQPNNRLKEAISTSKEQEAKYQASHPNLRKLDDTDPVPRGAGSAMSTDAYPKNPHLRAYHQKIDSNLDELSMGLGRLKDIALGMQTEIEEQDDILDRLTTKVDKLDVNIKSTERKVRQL
UniProt O95777: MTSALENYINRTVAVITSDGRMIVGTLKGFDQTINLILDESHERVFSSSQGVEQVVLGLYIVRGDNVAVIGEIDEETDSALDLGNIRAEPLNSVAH
UniProt O75934: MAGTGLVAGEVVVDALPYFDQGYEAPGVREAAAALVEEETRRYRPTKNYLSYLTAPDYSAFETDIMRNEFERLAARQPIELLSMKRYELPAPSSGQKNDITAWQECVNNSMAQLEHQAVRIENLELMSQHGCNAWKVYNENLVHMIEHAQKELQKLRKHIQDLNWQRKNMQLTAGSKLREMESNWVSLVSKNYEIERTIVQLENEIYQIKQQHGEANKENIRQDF

Compound: CN[C@@H]1C[C@H]2O[C@@](C)([C@@H]1OC)n1c3ccccc3c3c4c(c5c6ccccc6n2c5c31)C(=O)NC4 [staurosporine]
Assay: log2 fold change of tryptic peptide abundance, ligand vs vehicle (limited proteolysis) (log2 ratio); higher = more trypsin-susceptible (destabilized)
Conditions: ligand concentration: 20 uM; sample: K562 cleared lysate; digestion: 4 min, 22 C (HT-PELSA RT4min, Orbitrap Astral)

| Target | log2 fold change |
| --- | --- |
| SMNDC1 (peptide sequence: IKELEQEREDQK, peptide start residue: 164) (UniProt O75940) | -0.103 |
| FAM13A (peptide sequence: ANTIPIIGSPSSK, peptide start residue: 848) (UniProt O94988) | 0.519 |
| SNCG (peptide sequence: TKEGVMYVGAK, peptide start residue: 33) (UniProt O76070) | -0.224 |
| AP1G2 (peptide sequence: AILTAVHMIR, peptide start residue: 158) (UniProt O75843) | 0.376 |
| TTC4 (peptide sequence: GGFHEDQWEKEFEK, peptide start residue: 28) (UniProt O95801) | -0.526 |
| CLPX (peptide sequence: RAAAAADLANR, peptide start residue: 452) (UniProt O76031) | 0.321 |
| RECQL5 (peptide sequence: TREACEQLAIELSCR, peptide start residue: 268) (UniProt O94762) | -0.888 |
| PSIP1 (peptide sequence: GFNEGLWEIDNNPK, peptide start residue: 76) (UniProt O75475) | -0.349 |
| DDX58 (peptide sequence: YIIAQLMR, peptide start residue: 473) (UniProt O95786) | -0.0121 |
| DCTN3 (peptide sequence: YLDPEYIDR, peptide start residue: 67) (UniProt O75935) | -0.0597 |
| NPM3 (peptide sequence: NHDHQEIAVPVANLK, peptide start residue: 88) (UniProt O75607) | 0.0363 |
| BANF1 (peptide sequence: AYVVLGQFLVLKKDEDLFR, peptide start residue: 42) (UniProt O75531) | 0.959 |
| EML2 (peptide sequence: LLASADDFGK, peptide start residue: 587) (UniProt O95834) | 0.154 |
| UniProt O75419 (peptide sequence: VQTFSIHFGFK, peptide start residue: 358) | -0.129 |
| NDUFB10 (peptide sequence: AFDLIVDRPVTLVR, peptide start residue: 30) (UniProt O96000) | -0.183 |
| UniProt O94983 (peptide sequence: MESDFALLTLSDHEQR, peptide start residue: 1031) | -0.457 |

| Target | log2 fold change |
| --- | --- |
| SEC24D (peptide sequence: GGQVYATNTR, peptide start residue: 279) (UniProt O94855) | -0.215 |
| UniProt O95568 (peptide sequence: ELSVSESQK, peptide start residue: 32) | -0.298 |
| EPN2 (peptide sequence: EVAEQEER, peptide start residue: 289) (UniProt O95208) | -0.28 |
| YIF1A (peptide sequence: AYHSGYGAHGSK, peptide start residue: 2) (UniProt O95070) | -0.00812 |
| UniProt O75808 (peptide sequence: LAELLSGKR, peptide start residue: 286) | 0.434 |
| UniProt O75526 (peptide sequence: DSYSSSYGRSDR, peptide start residue: 324) | -0.356 |
| MBD4 (peptide sequence: MAIPVLWK, peptide start residue: 473) (UniProt O95243) | 0.345 |
| ALDH1A2 (peptide sequence: TMDEVIER, peptide start residue: 430) (UniProt O94788) | 0.165 |
| MICAL2 (peptide sequence: VDGQTGENDMNKR, peptide start residue: 666) (UniProt O94851) | -0.615 |
| CCNDBP1 (peptide sequence: AFIAVYYLLPK, peptide start residue: 98) (UniProt O95273) | -0.147 |
| UniProt O94804 (peptide sequence: ALDESHNQNLK, peptide start residue: 901) | 0.53 |
| PRPF40A (peptide sequence: SMWTEHK, peptide start residue: 144) (UniProt O75400) | 0.177 |
| SNAP29 (peptide sequence: GVLERTEK, peptide start residue: 86) (UniProt O95721) | 1 |
| STARD3NL (peptide sequence: LLIVQDASER, peptide start residue: 186) (UniProt O95772) | -0.229 |
| UniProt O95777 (peptide sequence: GFDQTINLILDESHER, peptide start residue: 29) | -0.32 |
| UniProt O75934 (peptide sequence: QQHGEANKENIRQDF, peptide start residue: 211) | 0.215 |

Looked up one by one from the entries so far, two records:

| Target | log2 fold change |
| --- | --- |
| UniProt O75934 (peptide sequence: QQHGEANKENIRQDF, peptide start residue: 211) | 0.215 |
| UniProt O95777 (peptide sequence: GFDQTINLILDESHER, peptide start residue: 29) | -0.32 |
